For 1 substance, binding results are on record in paper PMC10717060.

Amino acid sequences for entries named in this document (tags omitted). A change or cut given only in a name is not applied to a line headed by its entry.
UniProt Q91ZW1: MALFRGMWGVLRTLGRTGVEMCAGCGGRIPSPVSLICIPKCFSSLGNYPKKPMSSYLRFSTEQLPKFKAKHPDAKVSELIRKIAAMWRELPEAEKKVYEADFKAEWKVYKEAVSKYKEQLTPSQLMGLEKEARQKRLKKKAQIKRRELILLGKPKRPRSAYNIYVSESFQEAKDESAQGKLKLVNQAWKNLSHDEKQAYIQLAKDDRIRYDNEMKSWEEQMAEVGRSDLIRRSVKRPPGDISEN

No constants are given. Whether binding was seen depends on the method and setting. Binding seen in cells or lysates may run through a third protein. Binding can be weak; no strength is given.

The target of this experiment is T1, Tom70 (rat (endogenous in primary PVECs)) (UniProt Q75Q39).
T1 sequence: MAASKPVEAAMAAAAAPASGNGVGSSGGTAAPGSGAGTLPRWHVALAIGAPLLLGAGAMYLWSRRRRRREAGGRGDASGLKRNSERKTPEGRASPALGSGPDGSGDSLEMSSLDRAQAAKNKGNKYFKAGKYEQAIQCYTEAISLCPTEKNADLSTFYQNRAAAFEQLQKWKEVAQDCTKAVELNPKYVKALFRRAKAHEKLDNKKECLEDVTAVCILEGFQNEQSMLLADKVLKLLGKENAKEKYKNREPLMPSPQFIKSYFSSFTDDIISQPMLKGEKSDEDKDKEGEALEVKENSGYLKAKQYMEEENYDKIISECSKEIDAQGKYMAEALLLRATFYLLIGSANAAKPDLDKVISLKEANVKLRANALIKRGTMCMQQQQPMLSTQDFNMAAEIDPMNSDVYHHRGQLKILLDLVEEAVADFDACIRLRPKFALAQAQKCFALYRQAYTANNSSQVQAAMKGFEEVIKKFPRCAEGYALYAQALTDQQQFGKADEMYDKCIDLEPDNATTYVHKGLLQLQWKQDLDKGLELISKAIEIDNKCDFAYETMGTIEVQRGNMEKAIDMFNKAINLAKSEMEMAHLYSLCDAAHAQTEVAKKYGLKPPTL
The experiment in a line: co-IP; primary cultured PVECs; IP and IB; which protein was precipitated and which groups of cells were used is not given.

Regarding “mitochondrial transcription factor A (from UniProt Q91ZW1)”, the binding result is listed as “binds”.
